Assay results taken from the supplement of paper PMC7646827.
Single values are uncertain, as repeats are few or missing.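 All cells are established human bladder cancer lines, one of them grown from a patient-derived xenograft. Viability was read by a luminescent ATP assay as percent inhibition versus vehicle over a seven-point dilution series; the paper calls scores above 59 very active, 30–59 active, 21–29 semi-active, 9–20 low active and below 9 inactive.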

Columns and labels:
Test in all cases: drug sensitivity score DSS3 (score 0-100); higher = more sensitive; extreme values may be limits of the assay
Conditions in all cases: culture: 3D, ultra-low attachment; treatment time: 5 days
UM-UC-5 = test system: UM-UC-5
UM-UC-14 = test system: UM-UC-14
UM-UC-9 = test system: UM-UC-9
UM-UC-1 = test system: UM-UC-1
J82 = test system: J82
5637 = test system: 5637
UM-UC-15 = test system: UM-UC-15
UM-UC-12 = test system: UM-UC-12
SCaBER = test system: SCaBER
UM-UC-17 = test system: UM-UC-17
UM-UC-18 = test system: UM-UC-18
SW780 = test system: SW780
UM-UC-3 = test system: UM-UC-3
TCCSUP = test system: TCCSUP
T-24 = test system: T-24
BC8149 = test system: BC8149
UM-UC-6 = test system: UM-UC-6

Compound | drug sensitivity score DSS3 (UM-UC-5) | drug sensitivity score DSS3 (UM-UC-14) | drug sensitivity score DSS3 (UM-UC-9) | drug sensitivity score DSS3 (UM-UC-1) | drug sensitivity score DSS3 (J82) | drug sensitivity score DSS3 5637 | drug sensitivity score DSS3 (UM-UC-15) | drug sensitivity score DSS3 (UM-UC-12) | drug sensitivity score DSS3 (SCaBER) | drug sensitivity score DSS3 (UM-UC-17) | drug sensitivity score DSS3 (UM-UC-18) | drug sensitivity score DSS3 (SW780) | drug sensitivity score DSS3 (UM-UC-3) | drug sensitivity score DSS3 (TCCSUP) | drug sensitivity score DSS3 (T-24) | drug sensitivity score DSS3 (BC8149) | drug sensitivity score DSS3 (UM-UC-6)
Cn1c(=O)c2c(ncn2CC(O)CO)n(C)c1=O (stereo unspecified) [Dyphylline] (max dose 10000 nM) | 0 | 0 | 0 | 0 | 0 | 0.0166 | 0 | 0 | 0.571 | 0 | 0 | 0 | 0 | 0.188 | 0 | 0 | 
O=S(=O)(c1ccccc1)c1cnc2c(N3CCNCC3)cccc2c1 (max dose 10000 nM) |  | 1.14 | 3.49 | 2.58 | 0 | 13.6 | 0 | 8.02 | 5.97 | 0 | 25.2 | 3.13 | 5.92 | 1.51 | 0 | 0 | 0.794
Cc1cnc(Nc2ccc(OCCN3CCCC3)cc2)nc1Nc1cccc(S(=O)(=O)NC(C)(C)C)c1 (max dose 10000 nM) | 0 | 0 | 0 |  | 0 | 2.03 | 0 | 0 | 0.979 | 0 | 0.0756 | 0 | 0.743 | 3.44 | 0 | 1.21 | 0
CO[C@H]1C[C@@H]2CC[C@@H](C)[C@@](O)(O2)C(=O)C(=O)N2CCCC[C@H]2C(=O)O[C@H]([C@H](C)C[C@@H]2CC[C@@H](OC(=O)C(C)(CO)CO)[C@H](OC)C2)CC(=O)[C@H](C)/C=C(\C)[C@@H](O)[C@@H](OC)C(=O)[C@H](C)C[C@H](C)/C=C/C=C/C=C/1C (max dose 10000 nM) | 26.5 | 21.2 |  | 25 |  | 35.7 | 0 | 16.8 | 21.6 | 1.72 | 23.9 |  | 25.1 | 42.5 | 0 | 27.1 | 12.4
O=C1NC(=O)[C@@H](c2cn3c4c(cccc24)CCC3)[C@@H]1c1c[nH]c2ccccc12 [Tivantinib (ARQ 197)] (max dose 10000 nM) |  | 19.4 |  | 39.9 |  | 49.5 | 34.1 | 10.2 | 24.3 | 34.2 | 13.3 | 22.7 | 26.3 | 44 | 13.4 | 24.6 | 36.5
CCCCCCCCCCCCCC(=S)NCCCC[C@H](NC(=O)OCc1ccccc1)C(=O)Nc1ccccc1 [Thiomyristoyl] (max dose 10000 nM) | 0 | 0 |  | 0 |  | 0 | 0 | 25.3 | 7.93 | 0 | 0 | 0 | 0 | 0 | 14.9 | 0 | 0
Nc1cccc2c1CN(C1CCC(=O)NC1=O)C2=O (stereo unspecified) [Lenalidomide, Lenalidomide (CC-5013)] (max dose 10000 nM) |  | 9.77 | 0.813 | 3.1 | 0.87 | 5.68 | 0 | 4.36 | 2.78 | 0 | 4.07 | 0.0239 | 1.15 | 14.9 | 2.53 | 0.684 | 5.75
Cc1nc(C#Cc2ccnc(Cl)c2)c(C)n1-c1ccc(OC(F)(F)F)cc1 (max dose 10000 nM) | 0 | 0 | 0 | 0 | 0 | 0 | 9.05 | 0 | 0 | 0 | 0.257 | 0 | 0 | 1.22 | 0 | 0 | 
CO[C@H]1C(=O)[C@]2(C)[C@@H](OC)C[C@H]3OC[C@@]3(OC(C)=O)[C@H]2[C@H](OC(=O)c2ccccc2)[C@]2(O)C[C@H](OC(=O)[C@H](O)[C@@H](NC(=O)OC(C)(C)C)c3ccccc3)C(C)=C1C2(C)C [Cabazitaxel] (max dose 10000 nM) |  | 61.2 |  | 43.5 | 26.2 | 66.7 | 0 | 50.5 | 35.7 | 67.8 | 60.2 | 60.5 | 26.1 | 60.4 | 0 | 41.7 | 54.1
C[C@@H]1CC(=O)Nc2cccc(-c3ccc4c(c3)c(-c3cnn(C)c3)nn4C)c2N1 [CPI-637] (max dose 10000 nM) | 0 | 0 | 0.691 | 1.05 | 0 | 0 | 18.2 | 0 | 0 | 0 | 0 | 0 | 0 | 0 | 0 | 0 | 
c1ccc(NCc2ccc(CNc3ccccn3)cc2)nc1 [WZ811] (max dose 10000 nM) | 0 | 0 | 0 | 0 | 0 | 0 | 0 | 0 | 0 | 0 | 0 | 0 | 0 | 0 | 0 | 0 | 
COc1cc(N2CCC(N(C)C)CC2)ccc1Nc1ncc(Cl)c(Nc2ccccc2P(C)(C)=O)n1 [ALK-IN-1] (max dose 10000 nM) |  | 5.43 | 0 | 5.45 | 3.32 | 3.38 | 0 | 1.99 | 7.9 | 0.13 | 0.195 | 16 | 2.91 | 15.5 | 33.1 | 0.188 | 7.39
COc1ccc(NS(=O)(=O)c2ccc(N)cc2)nn1 [Sulfamethoxypyridazine] (max dose 10000 nM) | 0 | 0 | 0 | 0 | 0 | 1.82 | 0 | 0 | 0 | 0 | 0 |  | 0 | 1.23 | 0 | 0 | 
CCOc1cc2ncc(C#N)c(Nc3ccc(F)c(Cl)c3)c2cc1NC(=O)/C=C/CN(C)C [Pelitinib (EKB-569)] (max dose 10000 nM) | 14.8 | 12.5 | 19.1 | 2.38 |  | 50.2 | 18.5 | 45.6 | 46.2 | 3.29 | 26.4 | 1.9 | 24.6 | 25.1 | 38.6 | 19.2 | 26.3
CN(C)C(=O)Nc1cccc(-c2ccc(N(C)C)cc2)c1 [Atglistatin] (max dose 10000 nM) | 0 | 0.673 | 0 |  | 0 | 0 | 1.34 | 0 | 0 | 0.138 | 0 | 0.225 | 0.311 | 1 | 0 | 0.049 | 0
CS(=O)(=O)N1CCN(Cc2cc3nc(-c4cccc5[nH]ncc45)nc(N4CCOCC4)c3s2)CC1 [GDC-0941] (max dose 10000 nM) | 27.4 | 35.4 | 2.27 | 39.5 |  | 60.3 | 0 | 37.2 | 37.7 | 34.4 | 53.9 | 10.6 | 32.9 | 61 | 17.2 | 34.9 | 33.6
Cc1cc(N2C[C@@H](C)N[C@@H](C)C2)ncc1-c1ccc(-c2nc3c(ccn3C)c(=O)[nH]2)cc1 [AZ6102] (max dose 10000 nM) | 0 | 0 | 0.194 | 0.29 | 0 | 0.17 | 0 | 0.161 | 0 | 0 | 0 | 0 | 0 | 0.675 | 9.84 | 0 | 
Cc1c(C(=O)N2CCOc3ccc(-c4ccc(N)nc4)cc3C2)ccc(S(C)(=O)=O)c1F [XL388] (max dose 10000 nM) | 2.21 | 0.829 | 0 | 0 | 0 | 0 | 0 | 1.16 | 1.16 | 0 | 0.412 | 0 | 0 | 4.04 | 0 | 7.47 | 
C=CC(=O)N1CCC(CNc2ncnc(N)c2-c2ccc(Oc3ccccc3)cc2)CC1 [Evobrutinib] (max dose 10000 nM) | 0 | 2.27e-05 | 0 | 0 | 0 | 0 | 0 | 0 | 0 | 0 | 0 | 0 | 0 | 0 | 0.237 | 0 | 
CCOC(=O)c1ccc(N2NC(=O)C(=Cc3ccc([N+](=O)[O-])o3)C2=O)cc1 [PYR-41] (max dose 10000 nM) | 0 | 0 | 0 | 0.107 | 0 | 0 | 0 | 0 | 0 | 0 | 0 | 0 | 0 | 0.0503 | 0 | 0 | 
Clc1ccc(Nc2nnc(Cc3ccncc3)c3ccccc23)cc1 [Vatalanib (PTK787) 2HCl] (max dose 10000 nM) | 0 | 0.547 | 0.795 | 0 | 9 | 0 | 0 | 0 | 0 | 0 | 0 | 0 | 8.28 |  | 6.44 | 4.47 | 
CC(C)[C@@H](CS(=O)(=O)C(C)C)N1C(=O)[C@@](C)(CC(=O)O)C[C@H](c2cccc(Cl)c2)[C@H]1c1ccc(Cl)cc1 [AMG232] (max dose 10000 nM) | 0 | 4.3 | 0 | 6.39 |  | 12.4 | 0 | 13.6 | 5.55 | 7.63 | 0 | 18 | 10.1 | 6.76 | 0 | 12 | 0
Cc1cc(C)c(CNC(=O)c2cc(-c3ccc(CN4CCOCC4)cc3)cc3c2cnn3C2CCCC2)c(=O)[nH]1 (max dose 10000 nM) | 0 | 0 | 0 | 0 | 0 | 0 | 0 | 0 | 0.0545 | 0 | 0 | 0 | 0.485 | 0.847 | 0 | 0 | 
Nc1nc2c(cnn2CCc2ccccc2)c2nc(-c3ccco3)nn12 (max dose 10000 nM) | 0 | 16.3 | 0 | 0 | 0.684 | 5.62 | 0 | 0 | 0 | 0 | 0 | 0 | 0 | 0 | 15.9 | 0 | 

Individual results from the entries so far:
In drug sensitivity score DSS3 (SCaBER), O=S(=O)(c1ccccc1)c1cnc2c(N3CCNCC3)cccc2c1 (max dose 10000 nM) reads 5.97
In drug sensitivity score DSS3 (UM-UC-5), C[C@@H]1CC(=O)Nc2cccc(-c3ccc4c(c3)c(-c3cnn(C)c3)nn4C)c2N1 [CPI-637] (max dose 10000 nM) reads 0
